Data taken from PMC7747594, “Protease-activated receptor-2 ligands reveal orthosteric and allosteric mechanisms of receptor inhibition” (Communications Biology, 2020).
No constants are given. Whether binding was seen depends on the method and setting. Binding seen in cells or lysates may run through a third protein. Some binding calls cover weakened binding; strength is not graded here.

Sequences of proteins named here, by UniProt entry; tags and fusion partners are left off. Residues count along the entry.
UniProt P55085, residues 37-397: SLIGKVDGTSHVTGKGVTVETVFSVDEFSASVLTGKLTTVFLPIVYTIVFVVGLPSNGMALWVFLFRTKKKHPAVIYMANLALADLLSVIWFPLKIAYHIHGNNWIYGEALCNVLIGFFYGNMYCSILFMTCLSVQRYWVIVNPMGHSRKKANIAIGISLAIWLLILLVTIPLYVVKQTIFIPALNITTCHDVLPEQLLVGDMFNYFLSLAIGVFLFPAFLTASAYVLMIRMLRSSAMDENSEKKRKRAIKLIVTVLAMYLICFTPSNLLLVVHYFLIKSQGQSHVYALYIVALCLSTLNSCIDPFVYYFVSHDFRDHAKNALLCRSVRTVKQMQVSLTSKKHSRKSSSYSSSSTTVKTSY
UniProt P32121: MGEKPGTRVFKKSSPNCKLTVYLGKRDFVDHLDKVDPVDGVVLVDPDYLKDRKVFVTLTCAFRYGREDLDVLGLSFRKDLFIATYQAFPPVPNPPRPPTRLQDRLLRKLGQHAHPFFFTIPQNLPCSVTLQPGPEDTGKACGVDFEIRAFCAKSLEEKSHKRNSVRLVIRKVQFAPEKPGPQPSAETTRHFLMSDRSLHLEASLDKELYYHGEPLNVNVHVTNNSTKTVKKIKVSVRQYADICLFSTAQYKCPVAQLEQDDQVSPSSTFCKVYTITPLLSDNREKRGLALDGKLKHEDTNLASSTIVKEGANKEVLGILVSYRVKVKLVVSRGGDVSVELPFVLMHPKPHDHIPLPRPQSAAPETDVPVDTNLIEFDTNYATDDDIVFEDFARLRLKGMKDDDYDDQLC

Molecular target: human PAR2 in U2OS-hPAR2 cells (DiscoverX/Eurofins) (human) (UniProt P55085)
Test: split reporter; DiscoverX β-arrestin-2 recruitment assay based on enzyme complementation in U2OS-hPAR2 cells; agonist (AZ2429, GB110, SLIGKV-NH2 or SLIGRL-NH2) 90 min at 37 °C; chemiluminescence

binding: binds
Substance: β-arrestin-2 (from UniProt P32121 1-409)
